No constants are given. Whether binding was seen depends on the method and setting. Binding seen in cells or lysates may run through a third protein. A yes stands for co-enrichment or nearness to the bait. Other partners may have been found.
B1: RRP1B (protein, UniProt Q14684 1-758)
chain: MAPAMQPAEIQFAQRLASSEKGIRDRAVKKLRQYISVKTQRETGGFSQEELLKIWKGLFYCMWVQDEPLLQEELANTIAQLVHAVNNSAAQHLFIQTFWQTMNREWKGIDRLRLDKYYMLIRLVLRQSFEVLKRNGWEESRIKVFLDVLMKEVLCPESQSPNGVRFHFIDIYLDELSKVGGKELLADQNLKFIDPFCKIAAKTKDHTLVQTIARGVFEAIVDQSPFVPEETMEEQKTKVGDGDLSAEEIPENEVSLRRAVSKKKTALGKNHSRKDGLSDERGRDDCGTFEDTGPLLQFDYKAVADRLLEMTSRKNTPHFNRKRLSKLIKKFQDLSEGSSISQLSFAEDISADEDDQILSQGKHKKKGNKLLEKTNLEKEKGSRVFCVEEEDSESSLQKRRRKKKKKHHLQPENPGPGGAAPSLEQNRGREPEASGLKALKARVAEPGAEATSSTGEESGSEHPPAVPMHNKRKRPRKKSPRAHREMLESAVLPPEDMSQSGPSGSHPQGPRGSPTGGAQLLKRKRKLGVVPVNGSGLSTPAWPPLQQEGPPTGPAEGANSHTTLPQRRRLQKKKAGPGSLELCGLPSQKTASLKKRKKMRVMSNLVEHNGVLESEAGQPQALGSSGTCSSLKKQKLRAESDFVKFDTPFLPKPLFFRRAKSSTATHPPGPAVQLNKTPSSSKKVTFGLNRNMTAEFKKTDKSILVSPTGPSRVAFDPEQKPLHGVLKTPTSSPASSPLVAKKPLTTTPRRRPRAMDFF
B2: LAS1L (protein, UniProt Q9Y4W2 1-734)
chain: MSWESGAGPGLGSQGMDLVWSAWYGKCVKGKGSLPLSAHGIVVAWLSRAEWDQVTVYLFCDDHKLQRYALNRITVWRSRSGNELPLAVASTADLIRCKLLDVTGGLGTDELRLLYGMALVRFVNLISERKTKFAKVPLKCLAQEVNIPDWIVDLRHELTHKKMPHINDCRRGCYFVLDWLQKTYWCRQLENSLRETWELEEFREGIEEEDQEEDKNIVVDDITEQKPEPQDDGKSTESDVKADGDSKGSEEVDSHCKKALSHKELYERARELLVSYEEEQFTVLEKFRYLPKAIKAWNNPSPRVECVLAELKGVTCENREAVLDAFLDDGFLVPTFEQLAALQIEYEDGQTEVQRGEGTDPKSHKNVDLNDVLVPKPFSQFWQPLLRGLHSQNFTQALLERMLSELPALGISGIRPTYILRWTVELIVANTKTGRNARRFSAGQWEARRGWRLFNCSASLDWPRMVESCLGSPCWASPQLLRIIFKAMGQGLPDEEQEKLLRICSIYTQSGENSLVQEGSEASPIGKSPYTLDSLYWSVKPASSSFGSEAKAQQQEEQGSVNDVKEEEKEEKEVLPDQVEEEEENDDQEEEEEDEDDEDDEEEDRMEVGPFSTGQESPTAENARLLAQKRGALQGSAWQVSSEDVRWDTFPLGRMPGQTEDPAELMLENYDTMYLLDQPVLEQRLEPSTCKTDTLGLSCGVGSGNCSNSSSSNFEGLLWSQGQLHGLKTGLQLF
B3: ZC3H14 (protein, UniProt Q6PJT7 1-736)
chain: MEIGTEISRKIRSAIKGKLQELGAYVDEELPDYIMVMVANKKSQDQMTEDLSLFLGNNTIRFTVWLHGVLDKLRSVTTEPSSLKSSDTNIFDSNVPSNKSNFSRGDERRHEAAVPPLAIPSARPEKRDSRVSTSSQESKTTNVRQTYDDGAATRLMSTVKPLREPAPSEDVIDIKPEPDDLIDEDLNFVQENPLSQKKPTVTLTYGSSRPSIEIYRPPASRNADSGVHLNRLQFQQQQNSIHAAKQLDMQSSWVYETGRLCEPEVLNSLEETYSPFFRNNSEKMSMEDENFRKRKLPVVSSVVKVKKFNHDGEEEEEDDDYGSRTGSISSSVSVPAKPERRPSLPPSKQANKNLILKAISEAQESVTKTTNYSTVPQKQTLPVAPRTRTSQEELLAEVVQGQSRTPRISPPIKEEETKGDSVEKNQGTQQRQLLSRLQIDPVMAETLQMSQDYYDMESMVHADTRSFILKKPKLSEEVVVAPNQESGMKTADSLRVLSGHLMQTRDLVQPDKPASPKFIVTLDGVPSPPGYMSDQEEDMCFEGMKPVNQTAASNKGLRGLLHPQQLHLLSRQLEDPNGSFSNAEMSELSVAQKPEKLLERCKYWPACKNGDECAYHHPISPCKAFPNCKFAEKCLFVHPNCKYDAKCTKPDCPFTHVSRRIPVLSPKPAVAPPAPPSSSQLCRYFPACKKMECPFYHPKHCRFNTQCTRPDCTFYHPTINVPPRHALKWIRPQTSE
B4: MCM5 (protein, UniProt P33992 1-734)
chain: MSGFDDPGIFYSDSFGGDAQADEGQARKSQLQRRFKEFLRQYRVGTDRTGFTFKYRDELKRHYNLGEYWIEVEMEDLASFDEDLADYLYKQPAEHLQLLEEAAKEVADEVTRPRPSGEEVLQDIQVMLKSDASPSSIRSLKSDMMSHLVKIPGIIIAASAVRAKATRISIQCRSCRNTLTNIAMRPGLEGYALPRKCNTDQAGRPKCPLDPYFIMPDKCKCVDFQTLKLQELPDAVPHGEMPRHMQLYCDRYLCDKVVPGNRVTIMGIYSIKKFGLTTSRGRDRVGVGIRSSYIRVLGIQVDTDGSGRSFAGAVSPQEEEEFRRLAALPNVYEVISKSIAPSIFGGTDMKKAIACLLFGGSRKRLPDGLTRRGDINLLMLGDPGTAKSQLLKFVEKCSPIGVYTSGKGSSAAGLTASVMRDPSSRNFIMEGGAMVLADGGVVCIDEFDKMREDDRVAIHEAMEQQTISIAKAGITTTLNSRCSVLAAANSVFGRWDETKGEDNIDFMPTILSRFDMIFIVKDEHNEERDVMLAKHVITLHVSALTQTQAVEGEIDLAKLKKFIAYCRVKCGPRLSAEAAEKLKNRYIIMRSGARQHERDSDRRSSIPITVRQLEAIVRIAEALSKMKLQPFATEADVEEALRLFQVSTLDAALSGTLSGVEGFTSQEDQEMLSRIEKQLKRRFAIGSQVSEHSIIKDFTKQKYPEHAIHKVLQLMLRRGEIQHRMQRKVLYRLK
B5: COPG2 (protein, UniProt Q9UBF2 1-871)
chain: MIKKFDKKDEESGSGSNPFQHLEKSAVLQEARIFNETPINPRRCLHILTKILYLLNQGEHFGTTEATEAFFAMTRLFQSNDQTLRRMCYLTIKEMATISEDVIIVTSSLTKDMTGKEDVYRGPAIRALCRITDGTMLQAIERYMKQAIVDKVSSVSSSALVSSLHMMKISYDVVKRWINEAQEAASSDNIMVQYHALGVLYHLRKNDRLAVSKMLNKFTKSGLKSQFAYCMLIRIASRLLKETEDGHESPLFDFIESCLRNKHEMVIYEAASAIIHLPNCTARELAPAVSVLQLFCSSPKPALRYAAVRTLNKVAMKHPSAVTACNLDLENLITDSNRSIATLAITTLLKTGSESSVDRLMKQISSFVSEISDEFKVVVVQAISALCQKYPRKHSVMMTFLSNMLRDDGGFEYKRAIVDCIISIVEENPESKEAGLAHLCEFIEDCEHTVLATKILHLLGKEGPRTPVPSKYIRFIFNRVVLENEAVRAAAVSALAKFGAQNESLLPSILVLLQRCMMDTDDEVRDRATFYLNVLQQRQMALNATYIFNGLTVSVPGMEKALHQYTLEPSEKPFDMKSIPLAMAPVFEQKAEITLVATKPEKLAPSRQDIFQEQLAAIPEFLNIGPLFKSSEPVQLTEAETEYFVRCIKHMFTNHIVFQFDCTNTLNDQLLEKVTVQMEPSDSYEVLSCIPAPSLPYNQPGICYTLVRLPDDDPTAVAGSFSCTMKFTVRDCDPNTGVPDEDGYDDEYVLEDLEVTVSDHIQKVLKPNFAAAWEEVGDTFEKEETFALSSTKTLEEAVNNIITFLGMQPCERSDKVPENKNSHSLYLAGIFRGGYDLLVRSRLALADGVTMQVTVRSKERTPVDVILASVG
B6: PYGL (protein, UniProt P06737 1-847)
chain: MAKPLTDQEKRRQISIRGIVGVENVAELKKSFNRHLHFTLVKDRNVATTRDYYFALAHTVRDHLVGRWIRTQQHYYDKCPKRVYYLSLEFYMGRTLQNTMINLGLQNACDEAIYQLGLDIEELEEIEEDAGLGNGGLGRLAACFLDSMATLGLAAYGYGIRYEYGIFNQKIRDGWQVEEADDWLRYGNPWEKSRPEFMLPVHFYGKVEHTNTGTKWIDTQVVLALPYDTPVPGYMNNTVNTMRLWSARAPNDFNLRDFNVGDYIQAVLDRNLAENISRVLYPNDNFFEGKELRLKQEYFVVAATLQDIIRRFKASKFGSTRGAGTVFDAFPDQVAIQLNDTHPALAIPELMRIFVDIEKLPWSKAWELTQKTFAYTNHTVLPEALERWPVDLVEKLLPRHLEIIYEINQKHLDRIVALFPKDVDRLRRMSLIEEEGSKRINMAHLCIVGSHAVNGVAKIHSDIVKTKVFKDFSELEPDKFQNKTNGITPRRWLLLCNPGLAELIAEKIGEDYVKDLSQLTKLHSFLGDDVFLRELAKVKQENKLKFSQFLETEYKVKINPSSMFDVQVKRIHEYKRQLLNCLHVITMYNRIKKDPKKLFVPRTVIIGGKAAPGYHMAKMIIKLITSVADVVNNDPMVGSKLKVIFLENYRVSLAEKVIPATDLSEQISTAGTEASGTGNMKFMLNGALTIGTMDGANVEMAEEAGEENLFIFGMRIDDVAALDKKGYEAKEYYEALPELKLVIDQIDNGFFSPKQPDLFKDIINMLFYHDRFKVFADYEAYVKCQDKVSQLYMNPKAWNTMVLKNIAASGKFSSDRTIKEYAQNIWNVEPSDLKISLSNESNKVNGN
B7: PYGB (protein, UniProt P11216 1-843)
chain: MAKPLTDSEKRKQISVRGLAGLGDVAEVRKSFNRHLHFTLVKDRNVATPRDYFFALAHTVRDHLVGRWIRTQQHYYERDPKRIYYLSLEFYMGRTLQNTMVNLGLQNACDEAIYQLGLDLEELEEIEEDAGLGNGGLGRLAACFLDSMATLGLAAYGYGIRYEFGIFNQKIVNGWQVEEADDWLRYGNPWEKARPEYMLPVHFYGRVEHTPDGVKWLDTQVVLAMPYDTPVPGYKNNTVNTMRLWSAKAPNDFKLQDFNVGDYIEAVLDRNLAENISRVLYPNDNFFEGKELRLKQEYFVVAATLQDIIRRFKSSKFGCRDPVRTCFETFPDKVAIQLNDTHPALSIPELMRILVDVEKVDWDKAWEITKKTCAYTNHTVLPEALERWPVSMFEKLLPRHLEIIYAINQRHLDHVAALFPGDVDRLRRMSVIEEGDCKRINMAHLCVIGSHAVNGVARIHSEIVKQSVFKDFYELEPEKFQNKTNGITPRRWLLLCNPGLADTIVEKIGEEFLTDLSQLKKLLPLVSDEVFIRDVAKVKQENKLKFSAFLEKEYKVKINPSSMFDVHVKRIHEYKRQLLNCLHVVTLYNRIKRDPAKAFVPRTVMIGGKAAPGYHMAKLIIKLVTSIGDVVNHDPVVGDRLKVIFLENYRVSLAEKVIPAADLSQQISTAGTEASGTGNMKFMLNGALTIGTMDGANVEMAEEAGAENLFIFGLRVEDVEALDRKGYNAREYYDHLPELKQAVDQISSGFFSPKEPDCFKDIVNMLMHHDRFKVFADYEAYMQCQAQVDQLYRNPKEWTKKVIRNIACSGKFSSDRTITEYAREIWGVEPSDLQIPPPNIPRD

Protein sequences, listed by entry. Tags and fused reporters are not part of them.
UniProt Q9H4L4: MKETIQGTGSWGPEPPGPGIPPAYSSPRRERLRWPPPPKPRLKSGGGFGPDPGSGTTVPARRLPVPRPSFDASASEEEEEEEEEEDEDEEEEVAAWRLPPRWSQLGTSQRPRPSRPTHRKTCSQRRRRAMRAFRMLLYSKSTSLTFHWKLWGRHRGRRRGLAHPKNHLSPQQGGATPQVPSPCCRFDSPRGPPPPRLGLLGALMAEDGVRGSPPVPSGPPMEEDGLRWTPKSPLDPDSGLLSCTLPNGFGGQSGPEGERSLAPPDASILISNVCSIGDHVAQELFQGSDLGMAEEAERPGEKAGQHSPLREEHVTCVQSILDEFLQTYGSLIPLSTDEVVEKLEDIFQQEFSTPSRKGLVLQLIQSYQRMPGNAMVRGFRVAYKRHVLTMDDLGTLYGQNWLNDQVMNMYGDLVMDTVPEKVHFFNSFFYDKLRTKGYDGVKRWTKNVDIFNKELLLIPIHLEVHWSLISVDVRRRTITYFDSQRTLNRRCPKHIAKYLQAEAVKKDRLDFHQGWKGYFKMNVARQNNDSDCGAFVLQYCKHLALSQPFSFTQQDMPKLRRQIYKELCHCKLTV

target: FLAG-SENP3 (UniProt Q9H4L4); assay: affinity purification with mass spectrometry; 293T cells transfected with vector FLAG-pcDNA or FLAG-SENP3; co-IP with anti-FLAG antibody; gel silver stained, bands of approximately 100 kDa examined by MS; Table 1 lists the hits that were also increased in lysate of SENP3-transfected cells

binding, binds:
B1
B2
B3
B4
B5
B6
B7

From publication PMC4707158
